Data taken from article PMC11116412.
No constants are given. Whether binding was seen depends on the method and setting. Binding seen in cells or lysates may run through a third protein. Here binding means that the protein was enriched with, or labelled near, the bait; the list need not be complete. Each block holds one binder with its values, some of them ahead of it.

Target: Zonula occludens-1 (bovine (endogenous in BAECs))
Assay: affinity purification with mass spectrometry; ZO-1 immunoprecipitated (1 µg ZO-1 antibody, 1 mg protein, overnight, protein A agarose beads) from lysates of BAECs treated or not with VEGF (40 ng/ml, 10 min); lysis buffer 1% Nonidet P-40, 0.1% SDS, 0.1% deoxycholic acid, 50 mM Tris pH 7.4, 75 mM …; LC-MS/MS; compared with IgG control IPs, FDR 0.05

- binding: binds
B1: cingulin (CGNL1) (protein, UniProt G5E5V6 1-1293)
chain: MELYFGEYQHVQQEYGVHLRLASDETRKSRNSQHAKAGSYGVSIRVQGIDGHPYIVLNNTEQCLAGTSFSENGPSFPAPMINNLPLHPSKGSVVEESSAEELQLPENPYAPPGPVRNLKQPSVFEGKNGALERKEEPRKASPMLNFERHPELLQPYDPEKNELSLKNHQPPETSWLKALREGTNNKKAWTCMPKPSLSQPTSPPSEDPARSNVTAIRLCSSVVIDDPKKQTSVCMNVQSCSKECLAEEALAPSGRPLPTPSLQAHLEAKKTRPDVLPFRRQDSAGPVLDGARSRRSSSSSTTPTSANSLYRFLLDDQECAIHADNVNRHENRRYIPFLPGTGRDIDTGSIPGVDQLIEKFDQKPGMQRRGRSGKRNRINPEDRKRSRSVDSAFPFGLQGNSEYLTEFSRNLGKSSEHLLRPSQVCPPRAQEHRGRQGGGRAFARLLGAQPRPPLQNKDGKVPENKSAQESPTGRTSSLPAQTKKEEEIKTVTATLMLQNPALATSPDSGTKRISVKTFTSTSNTQATPDLLKGQQELTQQTNEETAKQILYNYLKEGSTDNDDATKRKVNLVFEKIQTLKSRAAGSTQGNNQASNSSSEVKDLLEQKNKLTTEVAELQTQLQLEVKNQQNIKEERDRMKADLEVLQSQHDSKVEESTVLQRRLEESEGALRRHLEELFQVKMEREQHQTEIRDLQDQLSEMHDELDSAKQSEDREKGALIEELLQAKQDLQHLLIAKEEQEDLLRKRERELTALKGALKEEVSSHDREMDKLKEQYDAELLALRESVEEATKNVEVLASRSSSAEQTQVGAEMRVKALQEENEKLRGSVEELERTVARLQRQLADLQDDEAKAKETLKKCEGETRQLEEALLHARKEEKEATSAKRALQTELEEAQRNLSRATQEQKQLSERLKDEAEQKEQLRRLKNEMENERWHLDKTIEKLQKEMADIVEVSRTSTLELQNQLDEYKEKNRRELAEMQRQLKEKTLEAEKSHLTAMKLQDEMRLMEEELRDYQRAQEEALTKRQLLEQTLKDLEYELEAKSHLKDDRGRLVKQMEDKVSQLEMELEEERNNSDLLSERITRSREQMEQMRNELLQERAMKQDLECDKISLERQNKDLKSRIIHLEGSYRSSKEGLVVQMEARIAELEDRLESEERDRASLQLSNRRLERKVKELVMQVDDEHLSLTDQKDQLSLRLKAMKRQVEEAEEEIDRLESSKKKLQRELEEQMDVNEQLQGQLNSMKKDLRLKKLPSKVLDDVDDDDDLSTDGGSLYEAPLSYTFPKDSTVVSQI

- binding: binds
B2: junction plakoglobin (protein, UniProt Q8SPJ1 1-745)
chain: MEVMNLIEQPIKVTEWQQTYTYDSGIHSGANTCVPSLSSKGLIEEDEACGRQYTLKKTTTYTQSVPPGQGDLEYQMSTTARAKRVREAMCPGVTGEDSSLLLTTQVEGQTTNLQRLAEPSQLLKSAIVHLINYQDDAELATRALPELTKLLNDEDPVVVTKAAMIVNQLSKKEASRRALMGSPQLVAAVVRTMQNTSDLDTARCTTSILHNLSHHREGLLAIFKSGGIPALVRMLSSPVESVLFYAITTLHNLLLYQEGAKMAVRLADGLQKMVPLLNKNNPKFLAITTDCLQLLAYGNQESKLIILANGGPQALVQIMRNYSYEKLLWTTSRVLKVLSVCPSNKPAIVEAGGMQALGKHLTSNSPRLVQNCLWTLRNLSDVATKQEGLESVLKILVNQLSVDDVNVLTCATGTLSNLTCNNSKNKTLVTQNSGVEALIHAILRAGDKDDITEPAVCALRHLTSRHPEAEMAQNSVRLNYGIPAIVKLLNQPNQWPLVKATIGLIRNLALCPANHAPLQEAAVIPRLVQLLVKAHQDAQRHVAAGTQQPYTDGVRMEEIVEGCTGALHILARDPMNRMEIFRLNTIPLFVQLLYSSVENIQRVAAGVLCELAQDKEAADAIDAEGASAPLMELLHSRNEGTATYAAAVLFRISEDKNPDYRKRVSVELTNSLFKHDPAAWEAAQSMIPMNEPYADDMDATYRPMYSSDVPMDPLEMHMDMDGDYPIDTYSDGLRPPYATADHMLA
